Measured values taken from paper PMC3257293.
Numbering of substitutions follows the chain as printed. No constants are given. Whether binding was seen depends on the method and setting. Some results given as binding are weak or reduced against the parent protein; the word gives no strength. Sequences can lack the tags named with a protein.

Assays:
Test in all cases: two-hybrid; Cdc5, Tem1 and Bub2 fused to the activation domain in pJG4-5; Bfa1 and each Bfa1 mutant fused to the DNA binding domain in pGilda; yeast strain EGY48 with the reporter plasmid pSH18-34; measured quantitatively
[1] = biological target: T1, Bfa1^W422A, fused to the DNA binding domain in pGilda (S. cerevisiae) (UniProt P47113)
T1 sequence: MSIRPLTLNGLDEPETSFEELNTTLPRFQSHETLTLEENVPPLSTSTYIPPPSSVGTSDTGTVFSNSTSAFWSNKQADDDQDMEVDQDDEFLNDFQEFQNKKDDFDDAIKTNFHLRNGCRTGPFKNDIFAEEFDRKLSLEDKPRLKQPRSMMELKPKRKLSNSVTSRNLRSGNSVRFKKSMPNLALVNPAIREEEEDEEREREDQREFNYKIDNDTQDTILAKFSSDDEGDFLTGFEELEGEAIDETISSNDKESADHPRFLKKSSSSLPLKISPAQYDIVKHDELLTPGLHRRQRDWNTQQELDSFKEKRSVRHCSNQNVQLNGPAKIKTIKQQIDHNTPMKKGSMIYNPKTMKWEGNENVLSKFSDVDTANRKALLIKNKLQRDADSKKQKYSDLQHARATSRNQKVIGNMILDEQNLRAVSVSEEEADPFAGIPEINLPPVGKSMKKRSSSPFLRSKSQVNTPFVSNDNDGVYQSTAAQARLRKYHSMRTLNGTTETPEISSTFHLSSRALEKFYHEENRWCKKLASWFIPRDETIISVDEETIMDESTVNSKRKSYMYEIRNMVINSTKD

[2] = biological target: T2, Bfa1^4A (SSS452AAA S559A), fused to the DNA binding domain in pGilda (S. cerevisiae) (UniProt P47113)
T2 sequence: T1 sequence with A422W, S452A, S453A, S454A, S559A

[3] = biological target: T3, Bfa1 (wild type), fused to the DNA binding domain in pGilda (S. cerevisiae) (UniProt P47113)
T3 sequence: T1 sequence with A422W

[4] = biological target: T4, Bfa1^D416A, fused to the DNA binding domain in pGilda (S. cerevisiae) (UniProt P47113)
T4 sequence: T1 sequence with D416A, A422W

Measured: binding

B1: Cdc5, fused to the DNA activation domain in pJG4-5 (enzyme, UniProt P32562 1-705)
chain: MSLGPLKAINDKQLNTRSKLVHTPIKGNTADLVGKENHFKQTKRLDPNNDHHHQPAQKKKREKLSALCKTPPSLIKTRGKDYHRGHFLGEGGFARCFQIKDDSGEIFAAKTVAKASIKSEKTRKKLLSEIQIHKSMSHPNIVQFIDCFEDDSNVYILLEICPNGSLMELLKRRKVLTEPEVRFFTTQICGAIKYMHSRRVIHRDLKLGNIFFDSNYNLKIGDFGLAAVLANESERKYTICGTPNYIAPEVLMGKHSGHSFEVDIWSLGVMLYALLIGKPPFQARDVNTIYERIKCRDFSFPRDKPISDEGKILIRDILSLDPIERPSLTEIMDYVWFRGTFPPSIPSTVMSEAPNFEDIPEEQSLVNFKDCMEKSLLLESMSSDKIQRQKRDYISSIKSSIDKLEEYHQNRPFLPHSLSPGGTKQKYKEVVDIEAQRRLNDLAREARIRRAQQAVLRKELIATSTNVIKSEISLRILASECHLTLNGIVEAEAQYKMGGLPKSRLPKIKHPMIVTKWVDYSNKHGFSYQLSTEDIGVLFNNGTTVLRLADAEEFWYISYDDREGWVASHYLLSEKPRELSRHLEVVDFFAKYMKANLSRVSTFGREEYHKDDVFLRRYTRYKPFVMFELSDGTFQFNFKDHHKMAISDGGKLVTYISPSHESTTYPLVEVLKYGEIPGYPESNFREKLTLIKEGLKQKSTIVTVD
binds: all assays above
